Source: publication PMC3961693
Negatives hold for the conditions tested. At least one verdict rests on a figure or table, not on a statement of the authors.

By UniProt entry, the sequences of proteins in these tests, tags left out. Residues count along the entry.
UniProt P05231, 30-212: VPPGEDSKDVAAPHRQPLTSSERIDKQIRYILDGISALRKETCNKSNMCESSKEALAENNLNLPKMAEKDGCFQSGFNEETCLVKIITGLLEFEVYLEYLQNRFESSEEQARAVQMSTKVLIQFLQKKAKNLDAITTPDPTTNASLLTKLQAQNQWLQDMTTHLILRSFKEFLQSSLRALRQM

Biological target: IL-6 (human) (UniProt P05231)
Assay: binding assay
Conditions: folded or branched DNA

Sequence: GTGGTTGG [thrombin-binding DNA aptamer]
- binding result: no binding
